From the supplement of paper PMC6078165
Values are relative to the signal before dosing, not to a vehicle control; the signal also falls without drug.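 Fibroblast labels name human fibroblasts: mostly primary ones from tissues such as uterus (C12385, HUF), lung (H6013), bone (Hs27A), adrenal (HADF) and skin (WS1), plus mammary HMF and breast cancer-associated Hs343T. The cancer cells are basal-like or mesenchymal-like triple-negative breast cancer lines. The paper calls a changed response a hit when it shifts by more than 3x the replicate standard deviation. The tissue of the other fibroblasts is not given here.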

Tested on: MDAMB231
Test: relative JC-1 red fluorescence (viability) vs pre-drug, coculture with fibroblast (fraction); higher = more viable cancer cells
Experimental: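 JC-1 labelled TNBC cells cocultured 1:1 (1,500 cells each) with CellTrace Violet stained primary or stromal fibroblasts in 384-well plates in FluoroBrite medium, treated with one of 42 anticancer drugs at 0.1, 1, 10 or 100 uM. JC-1 red fluorescence (mitochondrial integrity in cancer cells only) was read by plate reader every 8 h for 72 h. Values are normalised to each well's pre-drug value. The stock of one drug was tenfold lower, so its dose labels may be too high.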

CC(C)C[C@H](NC(=O)[C@@H](COC(C)(C)C)NC(=O)[C@H](Cc1ccc(O)cc1)NC(=O)[C@H](CO)NC(=O)[C@H](Cc1c[nH]c2ccccc12)NC(=O)[C@H](Cc1cnc[nH]1)NC(=O)[C@@H]1CCC(=O)N1)C(=O)N[C@@H](CCCNC(=N)N)C(=O)N1CCC[C@H]1C(=O)NNC(N)=O [Goserelin]
relative JC-1 red fluorescence
Conditions | 8 h | 16 h | 24 h | 32 h | 40 h | 48 h | 56 h | 64 h | 72 h
0.1 µM, coculture fibroblast: C12385 | 0.827 | 0.784 | 0.72 | 0.689 | 0.642 | 0.616 | 0.573 | 0.571 | 0.548
0.1 µM, coculture fibroblast: H6013 | 0.87379 | 0.813 | 0.7689 | 0.73 | 0.68 | 0.639 | 0.609 | 0.579 | 0.539
0.1 µM, coculture fibroblast: H6019 | 0.7604 | 0.7118 | 0.671 | 0.63 | 0.5837 | 0.5673 | 0.528 | 0.501 | 0.464
0.1 µM, coculture fibroblast: H6076 | 0.891 | 0.797 | 0.737 | 0.7 | 0.652 | 0.613 | 0.585 | 0.559 | 0.542
0.1 µM, coculture fibroblast: H6231 | 0.889 | 0.773 | 0.6926 | 0.63633 | 0.582 | 0.552 | 0.506 | 0.492 | 0.465
0.1 µM, coculture fibroblast: HADF | 0.8628 | 0.8128 | 0.7808 | 0.73929 | 0.7025 | 0.659 | 0.6433 | 0.624 | 0.576
0.1 µM, coculture fibroblast: HCFa | 0.893 | 0.838 | 0.782 | 0.741 | 0.687 | 0.63 | 0.607 | 0.565 | 0.527
0.1 µM, coculture fibroblast: HCPF | 0.88294 | 0.779 | 0.709 | 0.683 | 0.619 | 0.574 | 0.537 | 0.509 | 0.49
0.1 µM, coculture fibroblast: HHSteC | 0.89 | 0.823 | 0.752 | 0.687 | 0.636 | 0.604 | 0.557 | 0.535 | 0.499
0.1 µM, coculture fibroblast: HMF | 0.861 | 0.759 | 0.672 | 0.623 | 0.5652 | 0.5239 | 0.4722 | 0.4507 | 0.4274
0.1 µM, coculture fibroblast: HPFa | 0.916 | 0.845 | 0.796 | 0.736 | 0.711 | 0.67 | 0.612 | 0.579 | 0.519
0.1 µM, coculture fibroblast: HUF | 0.869 | 0.729 | 0.727 | 0.601 | 0.536 | 0.51 | 0.456 | 0.45 | 0.429
0.1 µM, coculture fibroblast: Hs5 | 0.877 | 0.784 | 0.705 | 0.645 | 0.595 | 0.535 | 0.4907 | 0.4593 | 0.425
0.1 µM, coculture fibroblast: Hs27A | 0.8786 | 0.8005 | 0.7739 | 0.747 | 0.697 | 0.629 | 0.633 | 0.612 | 0.561
0.1 µM, coculture fibroblast: Hs343T | 0.894 | 0.7674 | 0.699 | 0.65 | 0.587 | 0.539 | 0.48 | 0.449 | 0.42
0.1 µM, coculture fibroblast: WS1 | 0.7406 | 0.6737 | 0.579 | 0.518 | 0.455 | 0.422 | 0.369 | 0.358 | 0.33
1 µM, coculture fibroblast: C12385 | 0.759 | 0.721 | 0.662 | 0.611 | 0.544 | 0.513 | 0.471 | 0.465 | 0.448
1 µM, coculture fibroblast: H6013 | 0.895 | 0.8185 | 0.7757 | 0.754 | 0.708 | 0.689 | 0.671 | 0.645 | 0.6
1 µM, coculture fibroblast: H6019 | 0.757 | 0.671 | 0.647 | 0.597 | 0.549 | 0.537 | 0.481 | 0.4675 | 0.4248
1 µM, coculture fibroblast: H6076 | 0.861 | 0.759 | 0.733 | 0.721 | 0.677 | 0.65 | 0.629 | 0.625 | 0.61
1 µM, coculture fibroblast: H6231 | 0.8772 | 0.761 | 0.675 | 0.647 | 0.601 | 0.565 | 0.524 | 0.516 | 0.491
1 µM, coculture fibroblast: HADF | 0.869 | 0.8019 | 0.7393 | 0.714 | 0.674 | 0.635 | 0.616 | 0.601 | 0.557
1 µM, coculture fibroblast: HCFa | 0.9116 | 0.8401 | 0.8027 | 0.775 | 0.741 | 0.71 | 0.672 | 0.647 | 0.596
1 µM, coculture fibroblast: HCPF | 0.8491 | 0.746 | 0.666 | 0.666 | 0.606 | 0.56973 | 0.536 | 0.5078 | 0.4855
1 µM, coculture fibroblast: HHSteC | 0.94 | 0.861 | 0.828 | 0.797 | 0.752 | 0.718 | 0.67 | 0.649 | 0.602
1 µM, coculture fibroblast: HMF | 0.921 | 0.844 | 0.8 | 0.792 | 0.758 | 0.729 | 0.699 | 0.678 | 0.662
1 µM, coculture fibroblast: HPFa | 0.927 | 0.847 | 0.782 | 0.722 | 0.672 | 0.628 | 0.567 | 0.536 | 0.48
1 µM, coculture fibroblast: HUF | 0.8414 | 0.728 | 0.731 | 0.594 | 0.54 | 0.528 | 0.4788 | 0.4785 | 0.457
1 µM, coculture fibroblast: Hs5 | 0.8726 | 0.808 | 0.749 | 0.707 | 0.66 | 0.603 | 0.5628 | 0.533 | 0.508
1 µM, coculture fibroblast: Hs27A | 0.8767 | 0.8159 | 0.767 | 0.739 | 0.697 | 0.653 | 0.643 | 0.623 | 0.5631
1 µM, coculture fibroblast: Hs343T | 0.8677 | 0.773 | 0.687 | 0.659 | 0.5901 | 0.5357 | 0.48095 | 0.459 | 0.4271
1 µM, coculture fibroblast: WS1 | 0.75593 | 0.6823 | 0.6351 | 0.5489 | 0.4959 | 0.474 | 0.4274 | 0.418 | 0.3925
